PubChem BioAssay AID504582 (Broad Institute, 2011)
The whole screen tested about 340,000 compounds, of which about 2,300 (0.68%) were called active. The inconclusive results got no clear call from the source; some entries with a clear call stand among them for comparison. Cut-off read from the data, not from the text of the source: active = growth rescue above about 28% (passing the limit was not always enough); inconclusive = no clear call, values can overlap the other calls.

Test: rescue of yeast from PfHsp40 toxicity, primary screen, S. cerevisiae, ATP luminescence (AID 504582);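 note: yeast W303a lacking pdr1 and pdr3 grown in galactose medium; growth measured after three days at 30 °C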
Details: S. cerevisiae expressing PfHsp40, growth rescue, at 12.5 µM, stronger effect = higher value
For `O=C(CC(=O)c1c(F)cccc1Cl)c1ccccc1O`, the growth rescue was active: 112%.
In the case of `CSc1ccc(S(=O)(=O)NC2CC3CCC2C3)cc1` (stereo not given), the growth rescue is reported as active: 77.9%.
In the case of `O=C1Nc2ccccc2SC1c1ccccc1Cl` (stereo not given), the growth rescue is reported as inconclusive: 26.5%.
With `COc1cc(OC)c(C(=O)/C=C/c2ccccc2)c(O)c1O` the growth rescue was inconclusive: 71.2%.
For `CCOC(=O)c1sc2nc(CC(=O)OC)nc(NCCN3CCOCC3)c2c1C`, the growth rescue was inactive: 0.793%.
For `FC(F)(F)C1=NC(C(F)(F)F)=NP(N2CCOCC2)(N2CCOCC2)=N1`, the growth rescue was inconclusive: 92.6%.
With `CC(C)(C)NC(=O)C(c1ccc(-c2ccccc2)cc1)N(C[C@H]1CC[C@@H]([C@@H]2CC[C@H](CO)O2)O1)C(=O)c1ccc(C(C)(C)C)cc1` (stereo not given in full) the growth rescue was inconclusive: 56.7%.
With `O=c1cc(-c2ccccc2)cc(-c2ccccc2)n1O` the growth rescue was inconclusive: 33.3%.
For `O=C(CCN1C(=O)/C(=C\c2ccccc2F)SC1=S)Nc1ccc(C(=O)O)c(O)c1`, the growth rescue was inactive: -0.958%.
For `Nc1ccc(-c2ncc(-c3ccccc3)o2)cc1`, the growth rescue was inactive: 0.223%.
With `Cc1cc(C2CCCCC2)n(O)c(=O)c1` the growth rescue was inconclusive: 35.6%.
For `COc1cccc(N2C(=NC(=O)C3CCCCC3)SC3CS(=O)(=O)CC32)c1` (stereo not given), the growth rescue was inactive: 0.196%.
For `O=C(CSc1nc2nc(-c3cccs3)cc(C(F)(F)F)c2c(=O)[nH]1)NCc1ccco1`, the growth rescue was inactive: 0.266%.
In the case of `CC12CN3CC(C)(CN(C1)C3c1ccccc1F)C2` (stereo not given), the growth rescue is reported as active: 60.9%.
For `CCOC(=O)C1CCCN(CC(=O)/C=C2/N(C)c3ccccc3C2(C)C)C1` (stereo not given), the growth rescue was inactive: 1.81%.
With `CCn1c2ccccc2c2cc(CC(N)=O)ccc21` the growth rescue was inconclusive: 176%.
In the case of `COCCN(C(=O)c1csnn1)C(C(=O)NC1CCCC1)c1ccccc1` (stereo not given), the growth rescue is reported as inconclusive: 26.7%.
With `O=c1c2c3c(sc2n(CCN2CCCCC2)c(=O)n1Cc1ccco1)CCCCC3` the growth rescue was inactive: 0.677%.
For `Oc1ccc(Cl)cc1C1=NNC(c2ccc(Cl)cc2)C1` (stereo not given), the growth rescue was inconclusive: 26.2%.
In the case of `Oc1ccc(Cl)cc1Cc1cc(Cl)ccc1O`, the growth rescue is reported as active: 234%.
For `O=c1cc(CNc2cc(C(F)(F)F)cc(C(F)(F)F)c2)nc2sccn12`, the growth rescue was inactive: 1.86%.
With `CC1Cc2ccccc2N1C(=S)NC(=O)c1cccc(Br)c1` (stereo not given) the growth rescue was active: 146%.
With `CN(CC1CCCO1)S(=O)(=O)c1ccc(C(=O)Nc2nc(-c3ccccn3)cs2)cc1` (stereo not given) the growth rescue was inconclusive: 44.2%.
For `Cc1ccc(C2CN=NC23CCc2ccccc2C3=O)cc1` (stereo not given), the growth rescue was inactive: 0.136%.
For `Cc1csc(NC(=O)c2ccc(N3CCCC3=O)cc2)n1`, the growth rescue was inactive: -2.59%.
In the case of `Cc1ccc(S(=O)(=O)Nc2ccc(O)c3ccccc23)c(C)c1`, the growth rescue is reported as inactive: -0.714%.
For `CCCCC(=O)Nc1ccc(C(=O)OC2CCCCC2)cc1`, the growth rescue was inconclusive: 26.4%.
In the case of `CC(=O)NC(CC(=O)NNC(=O)c1cc2ccccc2cc1O)c1ccccc1` (stereo not given), the growth rescue is reported as active: 78.5%.
With `O=C(COc1ccccc1)Nc1ccc(-c2ccc(N3CCOCC3)nn2)cc1` the growth rescue was inconclusive: 28.6%.
In the case of `CCCC(=O)NC(c1ccc(C)cc1)c1ccc2cccnc2c1O` (stereo not given), the growth rescue is reported as inconclusive: 163%.
With `COC(=O)C1=C(C)N(c2ccc(F)c(Cl)c2)C(=O)C1` the growth rescue was inconclusive: 28.8%.
For `O=S(=O)(NCCSCc1ccc(Cl)cc1Cl)c1ccc2c(c1)OCCO2`, the growth rescue was inconclusive: 34.1%.
In the case of `CC(C)(CC(=O)O)CC(=O)Nc1ccc(Cl)c(Cl)c1`, the growth rescue is reported as inconclusive: 38.8%.
In the case of `Cc1ccc2c(c1)S/C(=C/c1ccc[n+](C)c1)N2CCO`, the growth rescue is reported as inactive: 0.444%.
With `O=C(CSc1nc(Nc2ccccc2)nc(N2CCOCC2)n1)Nc1cccc([N+](=O)[O-])c1` the growth rescue was inconclusive: 57.9%.
For `COc1ccc2c(=O)c(-c3nc(C)cs3)coc2c1`, the growth rescue was inconclusive: 29.7%.
For `COc1cc(/C=C2/C(=N)N3N=C(CC(=O)N4CCOCC4)SC3=NC2=O)ccc1OCc1ccccc1`, the growth rescue was inconclusive: 30.6%.
For `COc1ccc(-c2noc(CCCC(=O)O)n2)cc1`, the growth rescue was inactive: -0.368%.
For `CCc1ccc(NC(=O)CSc2ccc(-c3ccccn3)nn2)cc1`, the growth rescue was active: 305%.
For `O=S(=O)(c1ccccc1C(F)(F)F)N1CCN(c2ncnc3sccc23)CC1`, the growth rescue was inconclusive: 32.6%.
With `Clc1ccc(-c2csc(-c3cccnc3)n2)s1` the growth rescue was active: 29.4%.
In the case of `COc1ccc(C2=CC3=C(Br)C(=O)C(C)(O)C(=O)C3=CO2)cc1` (stereo not given), the growth rescue is reported as inconclusive: 58.2%.
In the case of `CCOC(=O)C1(Cc2ccc(Cl)cc2)CCN(C(C)Cc2ccc(O)c(OC)c2)CC1` (stereo not given), the growth rescue is reported as inactive: 1.23%.
In the case of `CCc1noc(C)c1C(=O)Nc1ccc(F)c(F)c1`, the growth rescue is reported as inactive: 0.0115%.
In the case of `O=C1CC(c2ccccc2)CC(O)=C1C=NCc1ccccc1Cl` (stereo not given), the growth rescue is reported as inconclusive: 25.5%.
